{"source": "patent US12173212B2", "about": "“Design, synthesis, and photophysical properties of a novel NIR II dye for biological imaging and optoelectronic devices” (University of Mississippi, priority 2020, dated 2024)", "key": {"[1]": {"assay": "Relative fluorescence quantum yield against cyanine standard C5", "assay_type": "physicochemical", "conditions": "dichloromethane, 10 μM, excitation 870 nm, cyanine reference dye C5"}, "[2]": {"assay": "Absorption spectra (Cary 5000 UV-Vis-NIR spectrophotometer, 1 cm quartz cell)", "assay_type": "physicochemical", "experimental": "All chemicals and solvents were purchased from commercial suppliers and used without further purification unless other-wise specified. ^1H NMR (500 MHz) and ^13C NMR ([…]) spectra were recorded in deuterated solvents on a Bruker ADVANCE 500 NMR Spectrometer. J values are expressed in Hz and quoted chemical shifts are in ppm downfield from tetramethylsilane (TMS) reference using the residual protonated solvents as an internal standard. The signals have been designated as follows: s (singlet), d (doublet), t (triplet), m (multiplets). High resolution mass spectra (HRMS) were deter-mined on Bruker-micrOTOF-Q II Mass Spectrometer. Absorption spectra were acquired using a Cary 5000 UV-Vis-NIR spectrophotometer in a 1 cm quartz cell. Fluorescence spectra were acquired using a Horiba QuantaMaster 8075-21 spectrofluorometer with xenon lamp excitation and liquid nitrogen cooled indium gallium arsenide solid state detector. 882 nm excitation was chosen to coincide with a Xe emission peak. The relative quantum yield of the rhodindolizine dye was calculated using a known technique. A cyanine dye was chosen as the standard due to the similar absorption and emissive regions. The dye, C5, has a known quantum yield of 2.2%. The absorbance point for the quantum yield was chosen because of similar overlap in the absorption spectra between the standard and the rhodindolizine dye. An excitation wavelength of 870 nm was used for both the C5 and rhodindolizine dyes. Both samples were dissolved in DCM to a 10 μM concentration.\nThe absorption maximum for RhIndz is 375 nm (FIG. 2). However, upon the formation of the ethyl ester, a large bathochromic shift of 550 nm occurs shifting the maximum absorption to 920 nm, which is within the NIR II region. […] This observed emission is broad extending from 950 nm to just beyond 1400 nm in dichloromethane with a quantum yield (ϕ) of ˜0.03% when using a cyanine reference dye (C5). While this ϕ appears low, it is stressed that very few molecular emissive materials exist in this region.\nAdditionally, a range of solvent polarities were evaluated to access the polarity of RhIndz in the ground-state via absorption spectroscopy and in the excited-state via fluorescence spectroscopy (Table 6)."}, "[3]": {"conditions": "solvent Acetone (dielectric constant 21, dipole 2.88 D)"}, "[4]": {"conditions": "solvent Chloroform (dielectric constant 4.8, dipole 1.04 D)"}, "[5]": {"conditions": "solvent DCM (dielectric constant 9.1, dipole 1.60 D)"}, "[6]": {"conditions": "solvent DMF (dielectric constant 38, dipole 3.82 D)"}, "[7]": {"conditions": "solvent DMSO (dielectric constant 46.7, dipole 3.96 D)"}, "[8]": {"conditions": "solvent Ethanol (dielectric constant 24.6, dipole 1.69 D)"}, "[9]": {"conditions": "solvent Ethyl Acetate (dielectric constant 6.0, dipole 1.78 D)"}, "[10]": {"conditions": "solvent Methanol (dielectric constant 33, dipole 1.70 D)"}, "[11]": {"conditions": "solvent THF (dielectric constant 7.5, dipole 1.75 D)"}, "[12]": {"conditions": "solvent Toluene (dielectric constant 2.4, dipole 0.36 D)"}}, "note": "For at least one compound, name, drawing or mass did not settle the structure.", "data": [{"smiles": "CCOC(=O)c1ccccc1C1=c2cc/c(=C3\\C(c4ccccc4)=C(C)c4cccc[n+]43)cc2Oc2cc(-c3c(-c4ccccc4)c(C)c4ccccn34)ccc21", "note": "[Compound 10, (Z)-3-(9-(2-(ethoxycarbonyl)phenyl)-6-(1-methyl-2-phenylindolizin-3-yl)-3H-xanthen-3-ylidene)-1-methyl-2-phenyl-3H-indolizin-4-ium]", "values": [{"measurement": "quantum yield (ϕ)", "setting": "[1]", "value": "~0.03", "unit": "%"}, {"measurement": "molar absorptivity", "setting": "[2]; FIG. 1 in dichloromethane", "value": "97,500 M^−1cm^−1"}, {"measurement": "bathochromic shift upon formation of the ethyl ester", "setting": "[2]; relative to RhIndz lactone", "value": 550, "unit": "nm"}, {"measurement": "maximum absorption", "setting": "[2]; ring open ethyl ester, FIG. 1 in dichloromethane", "value": 920, "unit": "nm"}, {"measurement": "Abs Max (eV)", "setting": "[2]; [3]", "value": 1.388, "unit": "eV"}, {"measurement": "Abs Max (nm)", "setting": "[2]; [3]", "value": 893, "unit": "nm"}, {"measurement": "Abs Max (eV)", "setting": "[2]; [4]", "value": 1.340, "unit": "eV"}, {"measurement": "Abs Max (nm)", "setting": "[2]; [4]", "value": 925, "unit": "nm"}, {"measurement": "Abs Max (eV)", "setting": "[2]; [5]", "value": 1.346, "unit": "eV"}, {"measurement": "Abs Max (nm)", "setting": "[2]; [5]", "value": 921, "unit": "nm"}, {"measurement": "Abs Max (eV)", "setting": "[2]; [6]", "value": 1.359, "unit": "eV"}, {"measurement": "Abs Max (nm)", "setting": "[2]; [6]", "value": 912, "unit": "nm"}, {"measurement": "Abs Max (eV)", "setting": "[2]; [7]", "value": 1.376, "unit": "eV"}, {"measurement": "Abs Max (nm)", "setting": "[2]; [7]", "value": 901, "unit": "nm"}, {"measurement": "Abs Max (eV)", "setting": "[2]; [8]", "value": 1.365, "unit": "eV"}, {"measurement": "Abs Max (nm)", "setting": "[2]; [8]", "value": 908, "unit": "nm"}, {"measurement": "Abs Max (eV)", "setting": "[2]; [9]", "value": 1.384, "unit": "eV"}, {"measurement": "Abs Max (nm)", "setting": "[2]; [9]", "value": 896, "unit": "nm"}, {"measurement": "Abs Max (eV)", "setting": "[2]; [10]", "value": 1.378, "unit": "eV"}, {"measurement": "Abs Max (nm)", "setting": "[2]; [10]", "value": 900, "unit": "nm"}, {"measurement": "Abs Max (eV)", "setting": "[2]; [11]", "value": 1.373, "unit": "eV"}, {"measurement": "Abs Max (nm)", "setting": "[2]; [11]", "value": 903, "unit": "nm"}, {"measurement": "Abs Max (eV)", "setting": "[2]; [12]", "value": 1.352, "unit": "eV"}, {"measurement": "Abs Max (nm)", "setting": "[2]; [12]", "value": 917, "unit": "nm"}, {"measurement": "variation of absorption maxima across solvents", "setting": "[2]; solvents with dipole 3.96 to 0.36 debye", "value": "< 0.04", "unit": "eV"}]}]}
